{"source": "patent US12714711B2", "about": "“Salts of neuroceuticals and uses thereof” (priority 2020, dated 2026)", "test": "Stress study at 40° C./75% relative humidity in a closed system, HPLC analysis", "note": "At least one structure is not confirmed: it was looked up by name or label, or the drawing left a doubt.", "data": [{"smiles": "CN1CCN(C2=Nc3cc(Cl)ccc3Nc3ccccc32)CC1", "note": "[clozapine, reference compound]", "values": [{"measurement": "Area % of clozapine peak (HPLC)", "setting": "kept at 40° C./75% RH for 30 days", "result": 100, "unit": "%"}, {"measurement": "Area % of clozapine peak (HPLC)", "setting": "pre-stress test", "result": 100, "unit": "%"}]}]}
